PubChem BioAssay AID1224830 | NIAID | 2016

Assay: 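Regulators of TLR4 signalling towards TNF-alpha in macrophage-like cells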 (primary screen)
Cell system: human THP-1 monocytic leukaemia cells, TNF dual-luciferase reporter clone, PMA-differentiated to macrophage-like cells
Reagents: siRNA pool against human genes, 50 nM
Duration: LPS for 4 h, given about 3 days after siRNA transfection
Conditions: bacterial LPS (TLR4 ligand), 10 ng/ml
Detection: 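Ratio of firefly to renilla light, scaled to the plate median and expressed as a robust z-score per replicate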
Reading the numbers: TNF reporter robust z-score: higher = stronger TNF reporter response to LPS
Active means: 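a well is active when its z-score exceeds 2.8 or falls below -1.5; control wells carry no call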
The deposit covers about 18,000 reagents; this is an unselected part. Of all reagents, about 2,900 (16%) got an active call. 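Calls are made per well; low scores hint the gene aids the LPS response, high scores that it dampens it.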 Repeated entries: four replicate wells of each siRNA pool.

gene knocked down	TNF reporter robust z-score	call
MYBL1	-0.72	inactive
MYBL1	0.03	inactive
MYBL1	-0.86	inactive
MYBL1	-0.08	inactive
SMURF2	-0.98	inactive
SMURF2	-0.43	inactive
SMURF2	1.04	inactive
SMURF2	-0.52	inactive
IRX4	-0.4	inactive
IRX4	-0.57	inactive
IRX4	-0.65	inactive
IRX4	-0.25	inactive
ALG11	-0.96	inactive
ALG11	-0.18	inactive
ALG11	-0.83	inactive
ALG11	-0.34	inactive
LTBP1	-0.94	inactive
LTBP1	-0.03	inactive
LTBP1	-0.05	inactive
LTBP1	0.06	inactive
CUL4B	-0.3	inactive
CUL4B	-0.41	inactive
CUL4B	-0.36	inactive
CUL4B	0.24	inactive
PDE6C	-0.41	inactive
PDE6C	0.15	inactive
PDE6C	0.01	inactive
THOC3	-0.28	inactive
THOC3	-0.36	inactive
THOC3	-0.6	inactive
THOC3	-0.07	inactive
KCNJ11	-1.15	inactive
KCNJ11	-1.12	inactive
KCNJ11	-0.79	inactive
KCNJ11	-0.55	inactive
SLC9A9	-1.37	inactive
SLC9A9	-0.43	inactive
SLC9A9	-0.66	inactive
SLC9A9	-0.47	inactive
GPAA1	-0.32	inactive
GPAA1	0.32	inactive
GPAA1	0.43	inactive
GPAA1	0.81	inactive
TJP3	0.94	inactive
TJP3	1.25	inactive
TJP3	0.62	inactive
TJP3	1.27	inactive
CCDC63	0.62	inactive
CCDC63	0.42	inactive
CCDC63	0.25	inactive
CCDC63	-0.33	inactive
POPDC1	-0.03	inactive
POPDC1	0.41	inactive
POPDC1	-0.96	inactive
POPDC1	0.55	inactive
FGF22	23.4	active
FGF22	0.64	inactive
FGF22	-0.1	inactive
FGF22	0.62	inactive
EIF3D	0.29	inactive
EIF3D	0.88	inactive
EIF3D	-0.04	inactive
EIF3D	0.45	inactive
PMEPA1	-0.35	inactive
PMEPA1	0.29	inactive
PMEPA1	0.19	inactive
PMEPA1	-1.09	inactive
SMPX	-0.49	inactive
SMPX	0.55	inactive
SMPX	0.48	inactive
SMPX	-0.05	inactive
DCTN4	0.68	inactive
DCTN4	-0.7	inactive
DCTN4	-0.85	inactive
DCTN4	-0.88	inactive
MAP3K10	-0.47	inactive
MAP3K10	-0.38	inactive
MAP3K10	-0.37	inactive
MAP3K10	1.56	inactive
TTLL11	-0.13	inactive
TTLL11	-0.01	inactive
TTLL11	0.23	inactive
TTLL11	1.18	inactive
AGO4	-0.7	inactive
AGO4	-0.27	inactive
AGO4	-0.55	inactive
AGO4	-0.73	inactive
ZNF521	-0.74	inactive
ZNF521	1.23	inactive
ZNF521	1.17	inactive
ZNF521	2.09	inactive
FBXO44	3.04	active
FBXO44	1.32	inactive
FBXO44	0.36	inactive
FBXO44	1.93	inactive
B4GALT6	-0.28	inactive
B4GALT6	0.14	inactive
B4GALT6	0.17	inactive
B4GALT6	0.83	inactive
CCL28	-1.07	inactive
CCL28	0.13	inactive
CCL28	-0.64	inactive
CCL28	-0.05	inactive
ZNF823	-0.57	inactive
ZNF823	0.36	inactive
ZNF823	0.12	inactive
ZNF823	0.11	inactive
SLC25A18	-1.18	inactive
SLC25A18	-0.38	inactive
SLC25A18	-0.6	inactive

Hits, of those listed so far:
gene knocked down	TNF reporter robust z-score	call
FGF22	23.4	active
FBXO44	3.04	active
